In PubChem BioAssay AID1688 (National Center for Advancing Translational Sciences (NCATS), 2009):
Screen size: about 220,000 compounds; about 2,400 (1.1%) were called active. This list was built around the results that the source calls inconclusive (neither active nor inactive); the mix of calls is not that of the screen. The call rests on the fitted dose curve; in most records, active means well fitted inhibition curve with a large enough effect; inconclusive means small, poorly fitted or top-dose-only effect, or effect the other way; inactive means no such curve, though single readings can be large or run the other way. Where the call is inconclusive, the potency comes from a doubtful curve fit. Some structures have more than one record in an assay (separate samples or runs), and their calls can disagree.

Experiment: qHTS Multiplex Assay to Identify Dual Action Probes in a Cell Model of Huntington: Aggregate Formation (GFP); further: nearly all actives have a fitted effect of over 60% in size
Details: PC12 HttQ103-GFP aggregates, Acumen cytometry, 40 h; activity change, negative = inhibition: at 46.1 µM (top of the series) unless noted
How it was run: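 Multiplexed with ATP-based cell death, this channel scores GFP aggregates in PC12 cells expressing inducible HTTex1-Q103-GFP. Induction used 100 nM tebufenozide; compounds were tested in concentration series.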
On the % scale 0 is the no-effect control and ±100 the full control effect; potency means the concentration at half of the fitted maximal effect.

Question: For `CCOc1ccc(C(=O)Nc2cc(-c3nc4ccccc4[nH]3)ccc2Cl)cc1[N+](=O)[O-]`, which Potency is on record?
Answer: active: 12.6 µM

Question: With `COc1ccc(-c2csc(Nc3ccccc3)n2)cc1` as the compound, how does the “activity change, negative = inhibition” value read?
Answer: inactive: -13.9%

Question: For `CCOCC(=O)Nc1cccc(Br)c1`, which “activity change, negative = inhibition” value is on record?
Answer: inactive: -4.76%

Question: For `N#C/C(=N\Nc1ccccc1F)C(=N)N1CCCCC1`, which “activity change, negative = inhibition” value is on record?
Answer: inactive: 2.35%

Question: Which Potency does the source give for `C/C(=C1/C(=O)N(c2ccc([N+](=O)[O-])cc2)N=C1c1ccccc1)N(C)C` here?
Answer: active: 12.6 µM

Question: Which Potency does the source give for `Oc1c(C(Nc2ccccn2)c2ccccn2)ccc2cccnc12` (configuration not stated) here?
Answer: active: 2.82 µM

Question: For `O=C1N/C(=N\N=C\c2ccccn2)SC1Cc1cccc(SC(F)F)c1` (configuration not stated), which Potency is on record?
Answer: active: 5.62 µM

Question: For `O=C(c1ccc(Cl)c(Cl)c1)N(Cc1ccco1)c1ccc(O)cc1`, which Potency is on record?
Answer: inconclusive: 35.5 µM [inhibitor, single point]

Question: Which Potency does the source give for `Cc1ccc(N=Nc2c(N)[nH]n3c(=O)cc(-c4ccccc4)nc23)cc1` here?
Answer: inconclusive: 5.62 µM [inhibitor, full curve, poor fit]

Question: With `Cc1ccc(Cn2c(Cc3ccccc3)nc3ccccc32)cc1` as the compound, how does the Potency read?
Answer: inconclusive: 28.2 µM [inhibitor, partial curve]

Question: For `CCOC(=O)N1CCN(Cc2cc(Cl)c3cccnc3c2O)CC1`, which Potency is on record?
Answer: inconclusive: 0.794 µM [inhibitor, single point]

Question: Which activity change, negative = inhibition does the source give for `Cc1nc(NC(=O)c2ccccc2)sc1C1(C)CC(c2c(Cl)cccc2Cl)=NO1` (configuration not stated) here?
Answer: inactive: -28.1% [at 9.22 µM]

Question: For `CCCCCCCCCCCCCCCC[n+]1ccc(/C=N/O)cc1`, which Potency is on record?
Answer: active: 8.91 µM

Question: With `C=C(c1ccc(O)cc1)c1ccc(O)cc1` as the compound, how does the Potency read?
Answer: inconclusive: 12.6 µM [activator, partial curve]

Question: Which Potency does the source give for `O=C1CCC(=O)N1CN(Cc1ccco1)CN1C(=O)CCC1=O` here?
Answer: inconclusive: 17.8 µM [activator, partial curve, poor fit]

Question: Which “activity change, negative = inhibition” value does the source give for `CC(C)CC(=O)NC(=S)Nc1cccc(NC(=O)c2ccccc2Cl)c1` here?
Answer: inactive: -1.64%

Question: Which Potency does the source give for `COc1cccc(/C=N/NC(=O)c2[nH]nc3c2CCc2ccccc2-3)c1O` here?
Answer: inconclusive: 2.82 µM [inhibitor, single point]

Question: For `CCCCOc1ccc(S(=O)(=O)Nc2cccnc2)cc1`, which Potency is on record?
Answer: active: 11.2 µM

Question: Which Potency does the source give for `O=c1c(O)c(-c2cccs2)oc2ccccc12` here?
Answer: active: 11.2 µM

Question: With `CCC(C(=O)OCC(=O)Nc1cc(Cl)cc(Cl)c1)c1ccccc1` (configuration not stated) as the compound, how does the “activity change, negative = inhibition” value read?
Answer: inactive: -17.6%

Question: For `Clc1cccc(/C(Cc2nc3ccccc3[nH]2)=N\Nc2ccccc2)c1`, which “activity change, negative = inhibition” value is on record?
Answer: inactive: 13.4%

Question: Which “activity change, negative = inhibition” value does the source give for `CN(CCc1ccccn1)C(=O)Nc1ccc(Cl)cc1` here?
Answer: inactive: 18.8%

Question: For `CCNc1nc(NC(C)C)nc(SCCOc2ccc(C)cc2)n1`, which Potency is on record?
Answer: inconclusive: 35.5 µM [inhibitor, single point]

Question: With `COc1cc(-c2nc(-c3ccccc3)c(-c3ccc(F)cc3)[nH]2)cc2c1OCO2` as the compound, how does the “activity change, negative = inhibition” value read?
Answer: inactive: 2.36%

Question: Which Potency does the source give for `CCn1cnc2cc(NCc3ccc(N(C)C)cc3)ccc21` here?
Answer: inconclusive: 35.5 µM [inhibitor, single point]

Question: Which Potency does the source give for `FC(F)(F)c1cccc(Cc2noc(CN3CCC(c4ccncc4)CC3)n2)c1` here?
Answer: inconclusive: 11.2 µM [inhibitor, single point]

Question: For `N=C(N)SCc1cccc2ccccc12`, which Potency is on record?
Answer: inconclusive: 7.08 µM [inhibitor, partial curve]

Question: With `COCCNC(=S)N/N=C1\CC(C)CC(C)(C)C1` (configuration not stated) as the compound, how does the Potency read?
Answer: inconclusive: 3.98 µM [inhibitor, partial curve]

Question: For `Cc1c(C(=O)Nc2ccc(Br)cc2)cnn1C`, which “activity change, negative = inhibition” value is on record?
Answer: inactive: -23.9%

Question: Which “activity change, negative = inhibition” value does the source give for `C[C@@]12C=CC(=O)C=C1CCC1C3CC(O)[C@@](O)(C(=O)CO)[C@]3(C)CC(O)[C@]12F` (some centres not stated) here?
Answer: inactive: 12.1%

Question: Which “activity change, negative = inhibition” value does the source give for `Cc1[nH]nc2c1C(c1cccnc1)N(c1ccc(Br)cc1)C2=O` (configuration not stated) here?
Answer: inactive: -2.9%

Question: With `COc1c(OC(C)=O)ccc(/C=C/c2ccc3cccc(OCc4ccccc4)c3n2)c1[N+](=O)[O-]` as the compound, how does the Potency read?
Answer: inconclusive: 35.5 µM [inhibitor, single point]

Question: Which Potency does the source give for `COCCn1c(=S)[nH]c2cc(C(=O)N3CCc4ccccc43)ccc2c1=O` here?
Answer: inconclusive: 22.4 µM [inhibitor, single point]

Question: With `O=C(CSc1nnnn1-c1ccc(O)cc1)Nc1ccc(N2CCOCC2)c(Cl)c1` as the compound, how does the Potency read?
Answer: inconclusive: 35.5 µM [activator, partial curve]

Question: With `CCC(=O)NC(NC(=S)Nc1ccc(S(N)(=O)=O)cc1)C(Cl)(Cl)Cl` (configuration not stated) as the compound, how does the “activity change, negative = inhibition” value read?
Answer: inactive: 2.86%

Question: Which Potency does the source give for `c1ccn(-c2ccc(N3CCOCC3)cc2)c1` here?
Answer: inconclusive: 35.5 µM [activator, single point]

Question: For `CCOC(=O)Cc1c[nH]c(=S)[nH]c1=O`, which activity change, negative = inhibition is on record?
Answer: inactive: -4.97% [at 9.22 µM]

Question: For `Cc1ccc(N(CC(=O)Nc2ccccc2C(=O)NCc2ccco2)S(=O)(=O)c2ccccc2)cc1C`, which “activity change, negative = inhibition” value is on record?
Answer: inactive: 2.41%

Question: Which Potency does the source give for `CCOC(=O)c1c(C)[nH]c(C(=O)OCC(=O)NC(C)C)c1C` here?
Answer: inconclusive: 11.2 µM [inhibitor, single point]

Question: For `COc1ccc(C(=O)NC(=S)Nc2ccc(S(=O)(=O)Nc3cc(C)on3)cc2)cc1OC`, which activity change, negative = inhibition is on record?
Answer: inactive: 3.34% [at 9.22 µM]

Question: Which “activity change, negative = inhibition” value does the source give for `CC1=C(C)NC(=S)SC1` here?
Answer: inactive: 13.4%

Question: For `COc1ccc(N2CCN(C(=O)c3cccnc3SCc3cccc(Br)c3)CC2)cc1`, which Potency is on record?
Answer: active: 22.4 µM

Question: With `COc1ccc(C(=O)c2no[n+]([O-])c2C(=O)c2ccc(OC)cc2)cc1` as the compound, how does the Potency read?
Answer: inconclusive: 31.6 µM [inhibitor, single point]

Question: For `c1ccc(CSc2nnc(-c3ccco3)o2)cc1`, which activity change, negative = inhibition is on record?
Answer: inactive: -11.4% [at 9.22 µM]

Question: Which Potency does the source give for `CCNC(=S)N1CCN(C(c2ccccc2)c2ccccc2)CC1` here?
Answer: inconclusive: 35.5 µM [inhibitor, single point]

Question: For `COc1cc(/C=C(\C#N)C(=O)NCC2CCCO2)c([N+](=O)[O-])cc1OC` (configuration not stated), which Potency is on record?
Answer: inconclusive: 0.891 µM [inhibitor, single point]

Question: Which “activity change, negative = inhibition” value does the source give for `COc1cc(NS(=O)(=O)c2ccc(Nc3nc(-c4ccccc4)cs3)cc2)nc(OC)n1` here?
Answer: inactive: 12.5%

Question: Which Potency does the source give for `O=C(CSc1nc2ccccc2c(=O)n1-c1ccc(F)cc1F)c1c[nH]c2ccccc12` here?
Answer: inconclusive: 35.5 µM [inhibitor, single point]

Question: For `CN1CCN(C(=S)NC(CC(=O)c2ccccc2)c2ccccc2)CC1` (configuration not stated), which activity change, negative = inhibition is on record?
Answer: inactive: 3.79% [at 9.22 µM]

Question: With `COc1ccc(-n2nnc3c(=O)n(CC(=O)N4CCC(Cc5ccccc5)CC4)cnc32)cc1` as the compound, how does the Potency read?
Answer: inconclusive: 1.58 µM [inhibitor, full curve, poor fit]

Question: For `CCc1ccc(-n2c(CSc3nnnn3-c3ccccc3)nc3ccccc3c2=O)cc1`, which “activity change, negative = inhibition” value is on record?
Answer: inactive: 0.975%

Question: Which Potency does the source give for `O=C(O)C1CCC(=O)N(C2CCCCC2)C1c1ccccc1` (configuration not stated) here?
Answer: inconclusive: 39.8 µM [inhibitor, partial curve, poor fit]

Question: With `COc1cc(/C=N/NC(=O)C(=O)NCc2ccco2)ccc1O` as the compound, how does the Potency read?
Answer: inconclusive: 6.31 µM [inhibitor, single point]

Question: For `COc1ccc(C2CC(=O)C=C(NCCC(C)C)C2)cc1` (configuration not stated), which Potency is on record?
Answer: inconclusive: 35.5 µM [inhibitor, single point]

Question: With `CC(C)(CO)CNC(=O)CCc1nnc(CCCc2ccccc2)o1` as the compound, how does the Potency read?
Answer: inconclusive: 1.12 µM [inhibitor, single point]

Question: Which Potency does the source give for `COc1ccc(-n2c(-c3ccc(Br)cc3)c[n+]3c2CCCCC3)cc1` here?
Answer: active: 2.24 µM

Question: For `COc1ccccc1N1CCN(CC(O)COc2cccc3ccccc23)CC1` (configuration not stated), which Potency is on record?
Answer: inconclusive: 10 µM [inhibitor, partial curve]

Question: With `C=CCNC(=S)Nc1ccc2nc(C)oc2c1` as the compound, how does the “activity change, negative = inhibition” value read?
Answer: inactive: 6.86%

Question: For `CCOC(=O)c1c(C)[nH]c(C(=O)OCc2c(C)noc2C)c1C`, which Potency is on record?
Answer: inconclusive: 15.8 µM [inhibitor, single point]

Question: For `O=C(N/C(=C\c1cccc([N+](=O)[O-])c1)C(=O)N1CCCCC1)c1cccs1`, which “activity change, negative = inhibition” value is on record?
Answer: inactive: 5.63%

Question: With `N#Cc1nc(Cc2cccc3ccccc23)oc1NCc1ccc2c(c1)OCO2` as the compound, how does the Potency read?
Answer: inconclusive: 22.4 µM [inhibitor, single point]

Question: Which “activity change, negative = inhibition” value does the source give for `O=C(/C=C/Nc1ccccc1F)c1ccc(Br)cc1` here?
Answer: inactive: 16.8%

Question: For `CC1=C(C)CC(C(=O)Nc2nc(-c3ccc(F)cc3)c(C)s2)C(C(=O)O)C1` (configuration not stated), which Potency is on record?
Answer: inconclusive: 0.501 µM [activator, partial curve, poor fit]

Question: For `O=C(CCCOc1ccc(Cl)cc1)N1CCCCC1`, which “activity change, negative = inhibition” value is on record?
Answer: inactive: -17.8%

Question: With `CC1=NN(c2ccccc2)C(=O)/C1=C\C=C1\N(C)c2ccccc2C1(C)C` as the compound, how does the Potency read?
Answer: inconclusive: 17.8 µM [inhibitor, single point]

Question: For `CO/N=C/c1ccc(Sc2ccccc2N)c([N+](=O)[O-])c1`, which “activity change, negative = inhibition” value is on record?
Answer: inactive: -15.3%

Question: For `CC1=NN(c2ccc(S(=O)(=O)O)cc2Cl)C(=O)C1`, which activity change, negative = inhibition is on record?
Answer: inactive: -13.8% [at 9.22 µM]

Question: For `Cc1ccc(C(=O)c2cc([N+](=O)[O-])ccc2N2CCOCC2)c(C)c1`, which Potency is on record?
Answer: inconclusive: 35.5 µM [activator, single point]

Question: For `CC1CCCN(C(=O)Cc2cn(Cc3cccc(Cl)c3)c3ccccc23)C1` (configuration not stated), which Potency is on record?
Answer: inconclusive: 35.5 µM [inhibitor, single point]

Question: For `CCCn1c(CNc2ccccc2O)nc2ccccc21`, which Potency is on record?
Answer: inconclusive: 31.6 µM [activator, single point]

Question: With `CCOc1ccc(NC(=O)Nc2ccc3c(c2)nnn3C)cc1` as the compound, how does the Potency read?
Answer: inconclusive: 1.26 µM [activator, single point]

Question: For `C=CCn1c(-c2ccc(OC)cc2)csc1=Nc1c(C)n(C)n(-c2ccccc2)c1=O`, which Potency is on record?
Answer: active: 0.794 µM

Question: With `COCCn1c(=O)c2cc3c(=O)n(CCOC)c(=O)c3cc2c1=O` as the compound, how does the “activity change, negative = inhibition” value read?
Answer: inactive: 2.89%

Question: Which Potency does the source give for `Cc1ccc(C(C#N)c2ccc3c(C(F)(F)F)cc(C(F)(F)F)nc3n2)cc1` (configuration not stated) here?
Answer: inconclusive: 35.5 µM [inhibitor, single point]

Question: For `COc1ccc(CCNCc2ccc(OCc3ccc(Cl)nc3)c(OC)c2)cc1OC`, which “activity change, negative = inhibition” value is on record?
Answer: inactive: 2.75%

Question: With `N#C/C(=N\O)c1nc(-c2ccccc2)cs1` as the compound, how does the Potency read?
Answer: active: 8.91 µM

Question: For `COc1cccc(CNn2c(-c3cccc(C)c3)nc3ccccc3c2=O)c1`, which Potency is on record?
Answer: inconclusive: 17.8 µM [inhibitor, single point]
